Consider one sequence from PMC11259696, “Small molecule MarR modulators potentiate metronidazole antibiotic activity in aerobic E. coli by inducing activation by the nitroreductase NfsA” (The Journal of Biological Chemistry, 2024).

This series addresses T1, MarR (His-tagged) (Escherichia coli BW25113) (UniProt P27245).
T1 sequence (looked up, limits assumed): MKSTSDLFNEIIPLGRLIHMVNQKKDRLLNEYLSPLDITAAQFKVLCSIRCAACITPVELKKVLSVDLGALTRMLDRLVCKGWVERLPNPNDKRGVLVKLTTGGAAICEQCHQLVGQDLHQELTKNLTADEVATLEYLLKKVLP
The series can be described thus: EMSA. The following applies: 5 uM MarR, 100 nM DNA, no BDM76441; EMSA: His-MarR 5 uM preincubated with BDM76441 15 min 25 C, then 100 nM marO 15 min 25 C (10 ul); 6% DNA retardation gel, 0.5x TBE, 150 V 45 min; binding buffer; recombinant protein; protein details: His tag (pET15b, NdeI/XhoI); label: none (ethidium bromide stain); probe letters rebuilt from the primers and the genome. For orientation: Mobility shift assays separate free from complexed probe on a gel.

For at least one entry, the source does not settle the construct or the ends of the probe. Where a protein sequence is shown, tags need not be part of it.

For the sequence “GTCAATTCATTCATTTGACTTATACTTGCCTGGGCAATATTATCCCCTGCAACTAATTACTTGCCAGGGCAACTAATGTGAAAAGTACCAGCGATCTGTTCAATGAAATTATTCCATTGGGTCGCTTAATCCATATGGTTAATCAGAAGAAAGATCGCCTGCTTAACGAGTATCTGTCTCCGCTGGATATTACCGCGGCACAGTTTAAGGTGCTCTGCTCTATCCGCTGCGCGGCGTGTATTACTCCGGTTGAACTGAAAAAGGTATTGTCGGTCGACCTGGGAGCACTGACCCGTATGCTGGATCGCCTGGTCTGTAAAGGCTGGGTGGAAAGGTTGCCGAACCCGAATGACAAGCGCGGCGTACTGGTAAAACTTACCACCGGCGGCGCGGCAATATGTGAACAATGCCATCAATTAGTTGGCCAGGACCTGCACCAAGAATTAACAAAAAACCTGACGGCGGACGAAGTGGCAACACTTGAGTATTTGCTTAAGA (double strand) [marO (marRAB promoter PCR fragment)]”, the binding result is “binds”.
